Results are given in words; binding and its absence hold for the method and conditions named. Some entries that bind do so weakly or less than the wild type.

By UniProt entry, the sequences of proteins in these tests, tags left out. Residues count along the entry.
UniProt O00220, residues 24-239: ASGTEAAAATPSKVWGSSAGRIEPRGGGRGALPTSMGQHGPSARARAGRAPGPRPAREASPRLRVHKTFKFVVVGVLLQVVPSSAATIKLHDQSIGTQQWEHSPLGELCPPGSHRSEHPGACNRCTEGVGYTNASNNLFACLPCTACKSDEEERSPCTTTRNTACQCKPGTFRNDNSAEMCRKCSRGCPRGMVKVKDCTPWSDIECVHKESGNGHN

Test [1] has as its target sTRAIL-R1 (Peprotech cat nr 310-18) (human) (UniProt O00220). Description: ELISA, coated sTRAIL-R1, FIG. 3.
For test [2] the target is unchanged. Description: ELISA, coated sTRAIL-R1 2 µg/mL.

B1: IgG1-DR4-T1014G03-K409R (antibody, V domains shown)
VH: EVQLVQSGAEVKMPGASVKLSCRVSGDTFTAYFIHWVRQAPGQGLEWMGWFNPISGTAGSAEKFRGRVAMTRDTSISTAYMELNRLTFDDTAVYYCARQHRGNTFDPWGQGTLVTVSS
VL: QSALTQPASVSGSPGQSITISCTGTSSDIGAYKYVSWYQQHPGKAPKLVIYEVSNRPSGVSSRFSGSKSGQTASLTISGLQADDEADYYCNSYQGYNTWVFGGGTKVTVLG
As to B1, the binding entry in test [1] and in test [2] was “binds” each time.

B2: IgG1-DR4-T1014G03-K409R-E430G (antibody, V domains shown)
VH: B1 VH
VL: B1 VL
As to B2, the binding result in test [1] and in test [2] was “binds” in each case.

(Values after US20190202926A1.)
